The other results are listed elsewhere or left out. Part of the spread comes from offsets between plates or batches.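 Hits were defined as a z-score below −3.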
Biological target: T1, YTHDF1 YTH domain (aa 365-554) (UniProt Q9BYJ9)
T1 sequence (whole entry): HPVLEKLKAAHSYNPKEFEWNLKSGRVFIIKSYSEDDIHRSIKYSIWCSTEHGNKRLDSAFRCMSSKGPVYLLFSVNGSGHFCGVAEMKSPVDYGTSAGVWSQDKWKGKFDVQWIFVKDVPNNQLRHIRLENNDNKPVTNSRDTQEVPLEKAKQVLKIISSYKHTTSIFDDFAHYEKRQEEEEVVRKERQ
Assay: tryptophan fluorescence intensity z-score (mean); higher = higher fluorescence, less quenching (negative = binding / quenching)
Details: 10 µM

Structure (SMILES) | tryptophan fluorescence intensity z-score
CN(C)CCC=C1c2ccccc2CCc2ccccc21 (plate: M 1-2) | inactive: 0.0557
CS(=O)(=O)c1ccc(C2=C(c3ccccc3)C(=O)OC2)cc1 (plate: M 9-10) | inactive: -0.213
COc1ccc2c(c1OC)OC[C@@H](c1ccc(OC)c(OC)c1OC)C2 (plate: M 15-16) | inactive: 0.458
COC(=O)C[C@H]1C(C)(C)C(=O)[C@@H]2CC3=C(CC[C@]4(C)C3=CC(=O)O[C@H]4c3ccoc3)[C@@]1(C)C2=O (plate: M 13-14) | inactive: 0.25
COc1cc(O)cc(O)c1C(C)=O (plate: M 21-22) | inactive: 0.263
O=C(Nc1ccccc1)c1ccccc1O (plate: M 1-2) | inactive: 0.837
C=C1C(=O)[C@]23[C@H](CC[C@@H]1[C@@H]2O)[C@]12CO[C@@]3(O)[C@H](O)[C@H]1C(C)(C)CC[C@@H]2O (plate: M 19-20) | inactive: 0.432
CCC(=O)OC1[C@@H]2CC3=C4CC(=O)O[C@@H](c5ccoc5)[C@]4(C)CCC3[C@@](C)(C2=O)[C@@H](CC(=O)OC)C1(C)C (stereo partly drawn) (plate: M 13-14) | inactive: 0.0465
COc1cc(OC)c2c(OC)c(-c3ccc4c(c3)OCO4)c(=O)oc2c1 (plate: M 21-22) | inactive: 0.247
CN1C(C(=O)Nc2ccccn2)=C(O)c2sccc2S1(=O)=O (plate: M 7-8) | inactive: -0.397
CC(=O)Oc1ccc2c(c1)CC[C@@H]1[C@@H]2CC[C@]2(C)[C@@H](OC(C)=O)CC[C@@H]12 (plate: M 21-22) | inactive: 0.163
Cc1ncc([N+](=O)[O-])n1CC(O)CCl (stereo not drawn) (plate: M 11-12) | inactive: -0.088
COc1cc(/C=C/C(=O)N2CCC=CC2=O)cc(OC)c1OC (plate: M 19-20) | inactive: 0.376
CN(C)c1ccc2nc3ccc(=[N+](C)C)cc-3sc2c1 (plate: M 11-12) | inactive: 0.331
COc1ccc(C2C(=O)c3ccccc3C2=O)cc1 (plate: M 7-8) | inactive: -0.112
Cc1cccc(C)c1NC(=O)C1CCCCN1C (stereo not drawn) (plate: M 9-10) | inactive: 0.0448
C=C[C@H]1CN2CC[C@H]1C[C@@H]2[C@@H](O)c1ccnc2ccc(OC)cc12 (plate: M 5-6) | inactive: -0.2
Cc1c(C(N)=O)cc([N+](=O)[O-])cc1[N+](=O)[O-] (plate: M 21-22) | inactive: 0.485
C[C@]12CC[C@H]3C(=CCc4cc(O)ccc43)[C@@H]1CCC2=O (plate: M 3-4) | inactive: 0.061
C[C@]12C=CC(=O)C=C1CC[C@@H]1[C@@H]2[C@@H](O)C[C@@]2(C)[C@H]1CC[C@]2(O)C(=O)COP(=O)(O)O (plate: M 11-12) | inactive: 0.463
CCCCCC/C=C\CCCCCCCc1cccc(O)c1C(=O)O (plate: M 19-20) | inactive: 0.158
N=C(N)N (plate: M 23-24) | inactive: 0.663
CC(=O)Oc1cc(C)c2c(c1C(OC(C)=O)OC(C)=O)Oc1c(c(C)c(OC(C)=O)c3c1C(OC(C)=O)OC3=O)OC2=O (stereo not drawn) (plate: M 15-16) | inactive: -0.0494
COc1ccc2oc(-c3ccccc3)c(OC)c(=O)c2c1 (plate: M 17-18) | inactive: -0.331

Structure (SMILES) | tryptophan fluorescence intensity z-score
O=C(O)c1cc(=O)c2ccccc2o1 (plate: M 21-22) | inactive: 0.106
CC(=O)CC(=O)CCC(=O)O (plate: M 21-22) | inactive: 0.594
NS(=O)(=O)c1cc(C(=O)O)c(NCc2ccco2)cc1Cl (plate: M 3-4) | inactive: -0.423
COc1ccc2ccc(=O)oc2c1 (plate: M 15-16) | inactive: 0.34
O=C(O)c1cc2cc(Cl)ccc2[nH]1 (plate: M 21-22) | inactive: 0.775
Cc1cc(C2CCCCC2)n(O)c(=O)c1 (plate: M 1-2) | inactive: -0.188
NS(=O)(=O)c1cc2c(cc1Cl)N=CNS2(=O)=O (plate: M 1-2) | inactive: -0.158
C[C@H](N)C(=O)NC(Cc1ccccc1)C(=O)O (mixture of isomers) (plate: M 23-24) | inactive: 0.546
CN[C@H](CC(C)C)C(=O)N[C@H]1C(=O)N[C@@H](CC(N)=O)C(=O)N[C@H]2C(=O)N[C@H]3C(=O)N[C@H](C(=O)N[C@H](C(=O)O)c4cc(O)cc(O)c4-c4cc3ccc4O)[C@H](O)c3ccc(c(Cl)c3)Oc3cc2cc(c3O[C@@H]2O[C@H](CO)[C@@H](O)[C@H](O)[C@H]2O[C@H]2C[C@](C)(N)[C@H](O)[C@H](C)O2)Oc2ccc(cc2Cl)[C@H]1O (plate: M 5-6) | inactive: -0.0451
CNS(=O)(=O)Cc1ccc2[nH]cc(CCN(C)C)c2c1 (plate: M 11-12) | inactive: 0.0319
O=c1c(O)c(-c2ccc(O)c(O)c2)oc2cc(O)ccc12 (plate: M 19-20) | inactive: -0.659
CC1=CC2C(C(C)C)CCC(C)(O)C2CC1 (stereo not drawn) (plate: M 17-18) | inactive: 0.0902
C=NC(C(=O)NC1C(=O)N2C1SC(C)(C)C2C(=O)O)c1ccccc1 (stereo not drawn) (plate: M 21-22) | inactive: 0.398
NC(=O)c1ncn([C@@H]2O[C@H](CO)[C@@H](O)[C@H]2O)n1 (plate: M 9-10) | inactive: 0.244
CCC(CCC(C)C1CCC2C3CCC4CC(O)CCC4(C)C3CCC12C)C(C)C (stereo not drawn) (plate: M 19-20) | inactive: 0.681
CCOC(=O)[C@H](CCc1ccccc1)N[C@@H](C)C(=O)N1[C@H](C(=O)O)C[C@@H]2CCC[C@@H]21 (plate: M 9-10) | inactive: -0.382
O=C(Nc1ccc(C(=O)O)c(O)c1)c1ccccc1 (plate: M 11-12) | inactive: -0.0307
CCCCOC(=O)c1ccc(N)cc1 (plate: M 5-6) | inactive: 0.252
C[C@H]1COC2=C1C(=O)C(=O)c1c2ccc2c1CCCC2(C)C (plate: M 21-22) | inactive: -0.421
CCCCC1=NC2(CCCC2)C(=O)N1Cc1ccc(-c2ccccc2-c2nnn[nH]2)cc1 (plate: M 9-10) | inactive: -0.211
CCOc1ccc(C(=O)c2ccc(OC)c(O)c2O)cc1 (plate: M 15-16) | inactive: -0.654
N=C(N)NC(=O)c1nc(Cl)c(N)nc1N (plate: M 1-2) | inactive: -0.0139
CC(=O)O[C@H]1CC[C@]2(C)C(C[C@@H](OC(C)=O)[C@]3(C)C4=CC(=O)O[C@H](c5ccoc5)[C@@]4(C)CCC23)C1(C)C (stereo partly drawn) [3-DEOXO-3beta-ACETOXYDEOXYDIHYDROGEDUNIN] (plate: M 13-14) | inactive: -0.131
NC1(C(=O)O)CCC1 (plate: M 23-24) | inactive: 0.71

Among those listed so far, three have an NH in an aromatic ring.
Structure (SMILES) | tryptophan fluorescence intensity z-score
O=C(O)c1cc2cc(Cl)ccc2[nH]1 (plate: M 21-22) | inactive: 0.775
CNS(=O)(=O)Cc1ccc2[nH]cc(CCN(C)C)c2c1 (plate: M 11-12) | inactive: 0.0319
CCCCC1=NC2(CCCC2)C(=O)N1Cc1ccc(-c2ccccc2-c2nnn[nH]2)cc1 (plate: M 9-10) | inactive: -0.211

From the supplement of paper PMC9578143, “Small-Molecule Ebselen Binds to YTHDF Proteins Interfering with the Recognition of N^6-Methyladenosine-Modified RNAs” (ACS Pharmacology & Translational Science, 2022)
